The text below walks through data of PubChem BioAssay AID1508610 (The Scripps Research Institute Molecular Screening Center, 2020).

Chains of the proteins cited; added tags and fusions are not shown. Lines headed by an entry give the natural chain unless they say otherwise; changes in a name come on top.
UniProt Q8TDV0: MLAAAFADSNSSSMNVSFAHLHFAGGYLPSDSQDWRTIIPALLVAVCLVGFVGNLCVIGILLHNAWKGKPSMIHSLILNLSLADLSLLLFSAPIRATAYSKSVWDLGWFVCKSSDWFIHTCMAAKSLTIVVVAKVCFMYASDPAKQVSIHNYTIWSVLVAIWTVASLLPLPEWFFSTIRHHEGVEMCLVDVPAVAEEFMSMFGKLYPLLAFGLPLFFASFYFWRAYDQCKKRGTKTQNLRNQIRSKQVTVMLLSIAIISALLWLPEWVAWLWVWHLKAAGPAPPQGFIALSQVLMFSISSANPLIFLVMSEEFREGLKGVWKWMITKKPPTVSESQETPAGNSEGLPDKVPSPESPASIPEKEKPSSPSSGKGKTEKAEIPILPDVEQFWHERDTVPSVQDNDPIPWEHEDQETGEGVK

This assay deals with G-protein coupled receptor 151 (Homo sapiens) (UniProt Q8TDV0). In words: GPR151 activator potency, dose response, cell-based (AID 1508610). To be noted: cell-based GPR151 activation reporter.

Structures are written as SMILES. The source made the active and inactive calls. No rule for the calls is given here. Bounds are passed on as bounds.

`O=C(/C=C/c1ccccc1)Nc1ccccc1O`: the EC50 was inactive: > 39.7 µM.

What is called EC50 is the midpoint of the concentration-response curve.
